Data as given in article PMC11206880, “The RNA Helicase Ded1 from Yeast Is Associated with the Signal Recognition Particle and Is Regulated by SRP21” (Molecules, 2024).
Results are given in words; binding and its absence hold for the method and conditions named. For some assays here: Binding seen in cells or lysates may run through a third protein. Some entries that bind do so weakly or less than the wild type. Where a sequence is shown, tags or fusion partners need not be part of it.

By UniProt entry, the sequences of proteins in these tests, tags left out.
UniProt P06634: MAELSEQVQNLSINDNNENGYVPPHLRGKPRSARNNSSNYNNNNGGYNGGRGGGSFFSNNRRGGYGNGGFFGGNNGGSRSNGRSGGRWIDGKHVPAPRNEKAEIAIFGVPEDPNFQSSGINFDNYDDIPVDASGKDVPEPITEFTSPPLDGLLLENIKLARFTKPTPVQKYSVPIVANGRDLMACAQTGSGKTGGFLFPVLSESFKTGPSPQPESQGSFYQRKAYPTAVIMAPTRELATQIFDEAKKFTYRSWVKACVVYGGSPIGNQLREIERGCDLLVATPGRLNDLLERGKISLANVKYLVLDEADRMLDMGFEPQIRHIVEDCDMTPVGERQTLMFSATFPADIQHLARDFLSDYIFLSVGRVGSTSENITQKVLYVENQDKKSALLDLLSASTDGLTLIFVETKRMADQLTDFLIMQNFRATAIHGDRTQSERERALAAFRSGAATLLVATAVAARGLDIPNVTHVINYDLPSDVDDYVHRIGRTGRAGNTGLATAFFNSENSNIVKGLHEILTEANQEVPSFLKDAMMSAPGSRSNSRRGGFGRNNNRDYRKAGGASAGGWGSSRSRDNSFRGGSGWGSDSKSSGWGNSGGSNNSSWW

B1: His-tagged SRP21 (protein, UniProt P32342 1-167)
chain: MSVKPIDNYITNSVRLFEVNPSQTLFSISYKPPTQKTDTKVSFRTHNSHLSLNYKFTTNKSKDVSRLLSALGPRGVSITPGKIEKIAQSKKKNNKIKESSKKIKGKSIQDIVGLATLIVNTDVEKSDPAAKKTATEPKQKANAVQNNNGNSAASKKKKNKNKGKKKR
B2: SRP21∆73 (domain or fragment, UniProt P32342 1-94)
chain: MSVKPIDNYITNSVRLFEVNPSQTLFSISYKPPTQKTDTKVSFRTHNSHLSLNYKFTTNKSKDVSRLLSALGPRGVSITPGKIEKIAQSKKKNN
B3: His-tagged SRP14 (natural protein, yeast (S. cerevisiae), UniProt P38985 1-146, looked up)
chain: MANTGCLSPGAFLSKVPEFFQTANEKHITVRLTAKRLIEHDPVEGNLEFDSTNHPDYDVSKKASEISVSSRSDREYPLLIRMSYGSHDKKTKCSTVVKASELDQFWQEYSSVFKGGMQNLIKKKKKKSKNGTISKTGKKNKVAKKN
notes: SRP14 of yeast, subcloned into the NdeI and XhoI sites of pET22b; source: E. coli Rosetta (DE3), purified (Ni-NTA)
B4: His-tagged Sec65 (natural protein, yeast (S. cerevisiae), UniProt P29478 1-273, looked up)
chain: MPRLEEIDDFNDIDDLDMELAELDPSLRTPIAPKITPKVVRSQDQENPAFLPGTNNNSNSNNNSSNEKEQLSFINPKTGKVERSEAISKKDLEEVKRFQVLYPCYFDINRSHKEGRRVPKELAVENPLAKTMADAVRELGILCIFEGEKCHPQDFGNPGRIRVLFKENGQLIGAATKFKGGKRQLMKAVGEYMKRHPTTIESLREIPYGPDFDNIEFKKIPRVKGFKMNEIVPLHSPFLMGHPMTKSVYETPKITAAEKSFKPPKNKYKVVRR
notes: Sec65 of yeast, cloned into the XhoI and BamHI sites of pET19b; source: E. coli Rosetta (DE3), purified (Ni-NTA)
B5: HA-tagged SRP101 (protein, UniProt P32916 1-621)
chain: MFDQLAVFTPQGQVLYQYNCLGKKFSEIQINSFISQLITSPVTRKESVANANTDGFDFNLLTINSEHKNSPSFNALFYLNKQPELYFVVTFAEQTLELNQETQQTLALVLKLWNSLHLSESILKNRQGQNEKNKHNYVDILQGIEDDLKKFEQYFRIKYEESIKQDHINPDNFTKNGSVPQSHNKNTKKKLRDTKGKKQSTGNVGSGRKWGRDGGMLDEMNHEDAAKLDFSSSNSHNSSQVALDSTINKDSFGDRTEGGDFLIKEIDDLLSSHKDEITSGNEAKNSGYVSTAFGFLQKHVLGNKTINESDLKSVLEKLTQQLITKNVAPEAADYLTQQVSHDLVGSKTANWTSVENTARESLTKALTQILTPGVSVDLLREIQSKRSKKDEEGKCDPYVFSIVGVNGVGKSTNLSKLAFWLLQNNFKVLIVACDTFRSGAVEQLRVHVENLAQLMDDSHVRGSKNKRGKTGNDYVELFEAGYGGSDLVTKIAKQAIKYSRDQNFDIVLMDTAGRRHNDPTLMSPLKSFADQAKPDKIIMVGEALVGTDSVQQAKNFNDAFGKGRNLDFFIISKCDTVGEMLGTMVNMVYATGIPILFVGVGQTYTDLRTLSVKWAVNTLMS

Columns and labels:
Recombinant Ded1-His = molecular target: T1, Recombinant Ded1-His (Saccharomyces cerevisiae, UniProt P06634 1-604); experiment: co-IP; purified Ded1 (4 µg) incubated with one purified SRP protein (4-6 µg), no RNA, 1x PBS with 2 mM MgCl2, 45 min, 30 °C; recovered with Ded1-specific IgG cross-linked to protein A-Sepharose beads; SDS-PAGE, Coomassie blue; both purified
T1 construct: Ded1, DEAD-box RNA helicase of budding yeast, expressed from the pET22b plasmid; also called purified Ded1

[1] = molecular target: Ded1 (Saccharomyces cerevisiae (endogenous in yeast extract)) (UniProt P06634); experiment: co-IP; Ded1-specific IgG on protein A-Sepharose beads with extracts (300 µg protein) of yeast G50 strains each expressing one 2HA-tagged SRP protein; 1x PBS with BSA and heparin, 2 h, 4 °C; anti-HA Western blot; pre-immune IgG as control; also with RNase A (1 mg/mL) digestion of the bound complexes before washing (signals reduced but still more than the control)

Binder | binding (Recombinant Ded1-His) | binding [1]
B1 | binds weakly | –
B2 | binds weakly | –
B3 | – | binds
B4 | – | binds
B5 | – | binds
